Data reported in patent US20230227577A1 (MYTHIC THERAPEUTICS, published 2023).
These are yes or no findings as the source states them, for the method shown. Some binding calls cover weakened binding; strength is not graded here.

B1: 2HCE27 anti-DLL3 VHH (VHH)
VHH: QVQLQESGGGLVQAGGSLRLSCAASGRTFRSYAMGWFRQAPGKEREFIAVIIMSDGSTSYADSVKGRFTISRDNAKNTLYLQMNSLKPEDTAVYYCAARRDYFTGVYDYWGQGTQVTVSS
notes: In the binning assay it was used as a periplasmic extract; also called anti-DLL3 (2HCE27)
B2: 3HCE4 anti-DLL3 VHH (VHH)
VHH: QVQLQESGGGLVQAGASLKLSCAVSGRAGSSYDMGWLRQAPGKEREFVAIITWSGNTAYKDSVKGRFIISRDNAKNTVYLEMNSLAPEDTAVYYCAAALSEKKYEYWGQGTQVTVSS
notes: In the binning assay it was used as a periplasmic extract
B3: 3HCE56 anti-DLL3 VHH (VHH)
VHH: QVQLQESGGGLVQAGGSLRLSCAASGRTFSVDAMGWLRQAPGKEREFVVVIDWTGGSTAYADSVKGRFTISRDNARNTVYLQMNNLKPEDTGVYYCAARERSRTAYDYWGQGTQVTVSS
notes: as for B2
B4: 3HCE87 anti-DLL3 VHH (VHH)
VHH: QVQLQESGGGLVQAGGSLRLSCAASGFIFDDYIIGWFRQAPGKEREFVAAISWSGSATAYADSVKGRFTISRDNAKNTLYLQMNTLKPEDTAVYYCAASSRGPYNSGSSYDYWGQGTQVTVSS
notes: as for B2
B5: 2HCE117 anti-DLL3 VHH (VHH)
VHH: QVQLQESGGGLVQPGGSLRLSCAASGFTFSSYAMSWVRQAPGKGLEWVSDINSGGGSTYYADSVKGRFTISRDNAKNTLYLQMDSLKPEDTAVYYCATPFEIGSWGQGTQVTVSS
notes: as for B2

Target: cynomolgus DLL3 protein (cynomolgus)
Test: Octet (DLL3 on AR2G tips), ELISA and FACS; values only in FIG. 3

binding, binds:
B1
B2
B3
B4
B5
